{"source": "patent US5827073A", "about": "“Photoreactive peptide derivatives” (Ludwig Institute for Cancer Research, priority 1995, dated 1998)", "system": "HLA-A1", "experiment": "Inhibition of HLA-A1 photoaffinity labelling on C1R/A1 cells by competitor peptides", "type": "binding, human", "conditions": "labelling with Dap(IASA)-ADPTGHSY on C1R HLA-A1 transfectants; 100-fold molar excess of competitor; densitometry", "note": "At least one peptide structure holds a part that was inferred or is arguable (an end, a ring closure or a residue). Where no end group is shown, it is not given here.", "data": [{"compound": "CC[C@H](C)[C@H](NC(=O)[C@@H]1CCCN1C(=O)[C@@H](NC(=O)[C@@H](NC(=O)[C@@H](N)CCC(=O)O)C(C)C)C(C)C)C(=O)N[C@@H](CO)C(=O)N[C@@H](Cc1c[nH]cn1)C(=O)N[C@@H](CC(C)C)C(=O)N[C@@H](Cc1ccc(O)cc1)C(=O)O", "note": "[MAGE-2]", "values": [{"measurement": "inhibition of HLA-A1 photoaffinity labelling", "value": "poor competitors"}]}, {"compound": "EVDPASNTY [MAGE-4a]", "values": [{"measurement": "inhibition of HLA-A1 photoaffinity labelling", "value": "about 98%"}]}, {"compound": "EVDPIGHVY [MAGE-6]", "values": [{"measurement": "inhibition of HLA-A1 photoaffinity labelling", "value": "about 98%"}]}, {"compound": "EVDPTSNTY [MAGE-4b]", "values": [{"measurement": "inhibition of HLA-A1 photoaffinity labelling", "value": "about 98%"}]}, {"compound": "EVVRIGHLY [MAGE-12]", "values": [{"measurement": "inhibition of HLA-A1 photoaffinity labelling", "value": "poor competitors"}]}]}
